Source: article PMC6943137, “A novel 5′-hydroxyl dinucleotide hydrolase activity for the DXO/Rai1 family of enzymes”
No constants are given. Whether binding was seen depends on the method and setting. Some results given as binding are weak or reduced against the parent protein; the word gives no strength. Tags and fused reporters may be left off the sequences shown.

Target: T1, Schizosaccharomyces pombe Rat1, full length, C-terminal hexa-histidine tag (from pET24d) (S. pombe) (UniProt P40848)
T1 sequence: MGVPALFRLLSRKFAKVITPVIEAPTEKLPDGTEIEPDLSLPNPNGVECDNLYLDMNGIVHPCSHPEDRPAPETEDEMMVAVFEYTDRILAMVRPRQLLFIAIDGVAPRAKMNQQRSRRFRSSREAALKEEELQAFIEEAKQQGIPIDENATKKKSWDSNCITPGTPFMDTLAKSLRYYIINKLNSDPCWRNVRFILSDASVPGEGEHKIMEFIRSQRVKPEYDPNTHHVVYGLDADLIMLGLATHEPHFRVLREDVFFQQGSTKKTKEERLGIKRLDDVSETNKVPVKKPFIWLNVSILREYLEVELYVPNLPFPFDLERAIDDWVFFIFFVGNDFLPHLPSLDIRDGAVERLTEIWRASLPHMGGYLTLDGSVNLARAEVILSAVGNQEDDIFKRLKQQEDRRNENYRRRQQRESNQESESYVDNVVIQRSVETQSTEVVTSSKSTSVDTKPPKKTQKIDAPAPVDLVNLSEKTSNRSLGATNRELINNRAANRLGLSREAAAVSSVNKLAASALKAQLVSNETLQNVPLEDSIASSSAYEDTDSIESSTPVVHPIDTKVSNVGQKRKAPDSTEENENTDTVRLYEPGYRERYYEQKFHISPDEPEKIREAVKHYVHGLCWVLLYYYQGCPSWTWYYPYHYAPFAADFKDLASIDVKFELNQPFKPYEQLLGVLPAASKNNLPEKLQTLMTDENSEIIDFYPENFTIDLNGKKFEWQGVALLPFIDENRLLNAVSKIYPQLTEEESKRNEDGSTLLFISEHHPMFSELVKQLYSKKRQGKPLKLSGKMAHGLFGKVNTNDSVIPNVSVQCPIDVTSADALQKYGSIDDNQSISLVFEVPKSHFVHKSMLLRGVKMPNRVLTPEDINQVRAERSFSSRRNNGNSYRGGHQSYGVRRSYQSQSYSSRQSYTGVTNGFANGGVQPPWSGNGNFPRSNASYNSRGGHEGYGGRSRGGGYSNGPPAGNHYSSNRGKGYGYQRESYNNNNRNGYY
Test: co-purification (Ni-NTA affinity, then gel filtration); E. coli cells producing His6-tagged Rat1 lysed and sonicated together with cells producing untagged Rai1; lysate in 400 mM NaCl, 20 mM Tris pH 7.5, 20 mM imidazole on Ni-NTA resin; gel filtration (Sephacryl S-300) in 250 mM NaCl, 20 mM Tris pH 7.5, 2 mM DTT

B1: Schizosaccharomyces pombe Rai1 (no affinity tag, from pET26b) (enzyme, UniProt O13836 1-352)
chain: MLREFSFYDVPPAHVPPVSEPLEIACYSLSRDRELLLDDSKLSYYYPPPLFSDLNTGFPNRFHPPKSDPDPISIVKDVLMTKGIQMNSSFLTWRGLITKIMCAPLDPRNHWETYLVMDPTSGIIMMEERTRSETSYANQDRMCYWGYKFEAISTLPEIWDACSRDQIEQRDNQDVVPDEQYCSIVKINIGKSKLILAGEVDCIWDKKPCSAKESDVHSDDGTIEEDASNAENPNLHYVELKTSKKYPLENYGMRKKLLKYWAQSFLLGIGRIIIGFRDDNGILIEMKELFTHQIPKMLRPYFKPNDWTPNRLLVVLEHALEWIKQTVKQHPPSTEFTLSYTGGSKLVLRQII
For B1, the binding was “binds”.
